One test has as its target PARP7 (Homo sapiens, UniProt Q7Z3E1). Description: PARP7 TR-FRET assay (binding, displacement of biotinylated Probe A). To be noted: read-out: PARP7 TR-FRET IC50, 6 nM PARP7, 2 nM Probe A, 25° C., 30 min. The protocol: Biological Assay Example A: PARP7 TR-FRET Assay
A time-resolved fluorescence energy transfer (TR-FRET) assay was used to test binding activity of compounds to PARP7. Two microliter test compound was added in 384-well plate. Reactions were performed in a 6 uL volume by adding 4 uL mixture of PARP7 and Probe A (a biotinylated probe binding to the PARP7: N-(6-(2-(4-((2-(6-oxo-5-(trifluoromethyl)-1,6-dihydropyridazin-4-yl) isoindolin-5-yl) oxy) piperidin-1-yl) acetamido) hexyl)-5-((3aS,4S,6aR)-2-oxohexahydro-1H-thieno [3,4-d]imidazol-4-yl) pentanamide, made as reported in WO2019212937A1) in assay buffer (20 mM HEPES pH 8.0, 100 mM NaCl, 0.1% BSA, 2 mM DTT and 0.002% Tween20). The final concentration of PARP7 and Probe A were 6 nM and 2 nM, incubating with test compounds at 25° C. for 30 min. Four microliter ULight-anti 6xHis and LANCE Eu-W1024 labeled streptavidin (PerkinElmer) were added with the final concentration of ULight-anti 6xHis and LANCE Eu-W1024 at 4 nM and 0.25 nM. The reaction mixture was incubated at 25° C. for 30 min. The plate was read on a Tecan Spark plate reader (excitation wavelength at 320 nm, emission wavelength at 615 nm and 665 nm with a 90 us delay. The ratio of the 665/615 nm emission was calculated for each well to the amount of complex of PARP7 and Probe A in each well was calculated. The 0.25% DMSO vehicle was used as control and no PARP7 well was as blank well. Inhibition rate is calculated with the formula of % inhibition=100-100*(TRFcmpd-TRFblank)/(TRFcontrol−TRFblank). Inhibition IC50 is calculated with the equation of Y=Bottom+ (Top-Bottom)/(1+10^((LogIC50−X) *Hill Slope))
For orientation: Time-resolved FRET reads energy transfer from a long-lived donor to a nearby acceptor.

Chains of the proteins cited; added tags and fusions are not shown.
UniProt Q7Z3E1, whole entry: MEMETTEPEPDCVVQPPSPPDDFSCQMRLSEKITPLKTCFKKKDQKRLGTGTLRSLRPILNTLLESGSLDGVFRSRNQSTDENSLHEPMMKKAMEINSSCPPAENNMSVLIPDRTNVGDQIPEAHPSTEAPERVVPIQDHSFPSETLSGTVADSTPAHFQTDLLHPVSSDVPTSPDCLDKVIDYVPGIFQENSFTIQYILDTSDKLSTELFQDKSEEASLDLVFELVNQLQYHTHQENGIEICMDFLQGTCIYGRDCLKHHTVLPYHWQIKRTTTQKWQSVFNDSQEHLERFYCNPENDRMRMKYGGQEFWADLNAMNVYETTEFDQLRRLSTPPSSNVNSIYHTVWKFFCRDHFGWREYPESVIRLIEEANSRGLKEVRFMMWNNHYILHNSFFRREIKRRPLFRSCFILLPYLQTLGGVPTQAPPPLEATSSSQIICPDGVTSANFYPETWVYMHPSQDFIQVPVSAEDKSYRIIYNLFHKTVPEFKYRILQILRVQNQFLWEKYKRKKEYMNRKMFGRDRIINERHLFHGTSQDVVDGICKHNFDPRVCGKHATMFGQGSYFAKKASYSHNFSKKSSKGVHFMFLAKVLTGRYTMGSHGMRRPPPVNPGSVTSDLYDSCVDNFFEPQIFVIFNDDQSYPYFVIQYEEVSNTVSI

The next test relates to NCI-H1373 cells. Briefly: Inhibition of cancer cell growth in NCI-H1373 cells (Cell-titer Glo, 6 days). To be noted: read-out: H1373 Cell Proliferation IC50. On the procedure: Biological Assay Example B: Inhibition of cancer cell growth in NCI-H1373 cells by PARP7 inhibitors
NCI-H1373 cells were cultured in RPMI 1640 medium supplemented with 10% fetal bovine serum, 100 U/mL penicillin and 100 ug/mL streptomycin in a 37° C., 5% CO2 incubator. Fifteen hundred cells were seeded into each well of 96-well plate in RPMI1640 medium containing 10% fetal bovine serum and incubated overnight. Serial diluted compounds for each well were added at a final DMSO concentration of 0.5% and a day zero plate was collected for analysis. Compounds were incubated with the cells for 6 days. Cell growth was assessed using Cell-titer Glo reagent (Promega #G^7572). The luminescence signal was collected on Tecan Spark plate reader. Cell growth is determined by correcting for the cell count on day zero. Inhibition rate is calculated with the formula of % inhibition=100*(DMSO control-compounds)/(DMSO control-Blank). Cell growth inhibition IC50 is calculated with the equation of Y-Bottom+ (Top-Bottom)/(1+10^((LogIC50−X) *Hill Slope)).

Like-named read-outs stand apart in the source and are kept apart here. The structures given here were assigned with low confidence; some may be wrong.

As for `N#Cc1ccc2c(c1)N(c1cc(C(F)(F)F)c(=O)[nH]n1)CC(CC(=O)N1CCN(c3cnc(C(F)(F)F)cn3)CC1)O2` (single isomer, unassigned), the IC50 at PARP7 and in the test on NCI-H1373 cells was less than 100 nM in each case.
With `O=C(c1cccc(Oc2n[nH]c(=O)c(C(F)(F)F)c2OC2CC(F)(F)C2)c1)N1CCN(c2ncc(C(F)(F)F)cn2)CC1`, the IC50 at PARP7 was less than 100 nM.
As to `N#Cc1cnc(N2CCN(C(=O)c3cccc(Oc4n[nH]c(=O)c(C(F)(F)F)c4N4CC5(C4)CC(F)(F)C5)c3)CC2)nc1`, at PARP7 (tested form: TFA (0.4 eq)), the IC50 is less than 100 nM.
Still for that read-out and setting: under `CO[C@H]1C[C@@H](Oc2c(Oc3cccc(C(=O)N4CCN(c5ncc(C(F)(F)F)cn5)CC4)c3)n[nH]c(=O)c2C(F)(F)F)C1` (relative stereo) stands less than 100 nM.
Turning to `Cc1c(Oc2cccc(C(=O)N3CCN(c4cnc(C(F)(F)F)cn4)CC3)c2)n[nH]c(=O)c1C(F)(F)F`, the IC50 at PARP7 is less than 100 nM; in the test on NCI-H1373 cells, 100 to 1000 nM.
